Test results taken from PMC7873015.
These are yes or no findings as the source states them, for the method shown. In cells and extracts the contact can be indirect. A result given as binding can be weak or reduced; the word gives no strength.

Molecular target: T1, receptor-interacting protein 3 (RIP3) (rat (endogenous in H9c2)) (UniProt Q9Z2P5)
T1 sequence: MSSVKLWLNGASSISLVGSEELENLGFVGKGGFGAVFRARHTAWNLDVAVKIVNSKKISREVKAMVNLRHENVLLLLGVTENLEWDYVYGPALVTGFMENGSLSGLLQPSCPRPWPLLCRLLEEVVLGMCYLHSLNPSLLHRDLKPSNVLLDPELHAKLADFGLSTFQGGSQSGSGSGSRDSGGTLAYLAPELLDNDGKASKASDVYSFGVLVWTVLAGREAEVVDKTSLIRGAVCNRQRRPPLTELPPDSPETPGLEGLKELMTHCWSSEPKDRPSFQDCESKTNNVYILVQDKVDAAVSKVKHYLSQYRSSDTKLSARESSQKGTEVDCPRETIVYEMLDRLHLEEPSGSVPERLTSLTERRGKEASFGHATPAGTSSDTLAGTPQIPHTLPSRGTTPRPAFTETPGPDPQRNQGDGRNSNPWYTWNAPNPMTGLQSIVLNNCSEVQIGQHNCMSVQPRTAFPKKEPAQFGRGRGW
Test: co-IP; endogenous RIP3 immunoprecipitated with anti-RIP3 (normal rabbit IgG as control) from lysates of H9c2 cells treated with DMSO or the indicated concentrations of vinblastine for 48 h; protein A/G-agarose beads, 4 °C overnight; immunoblot with a RIP1 antibody

With “receptor-interacting protein 1 (RIP1) (rat (endogenous in H9c2))” the binding was “binds”.
